No constants are given. Whether binding was seen depends on the method and setting. In cells and extracts the contact can be indirect. Some binding calls cover weakened binding; strength is not graded here.
Biological target: T1, IRF9, Q00978
T1 chain: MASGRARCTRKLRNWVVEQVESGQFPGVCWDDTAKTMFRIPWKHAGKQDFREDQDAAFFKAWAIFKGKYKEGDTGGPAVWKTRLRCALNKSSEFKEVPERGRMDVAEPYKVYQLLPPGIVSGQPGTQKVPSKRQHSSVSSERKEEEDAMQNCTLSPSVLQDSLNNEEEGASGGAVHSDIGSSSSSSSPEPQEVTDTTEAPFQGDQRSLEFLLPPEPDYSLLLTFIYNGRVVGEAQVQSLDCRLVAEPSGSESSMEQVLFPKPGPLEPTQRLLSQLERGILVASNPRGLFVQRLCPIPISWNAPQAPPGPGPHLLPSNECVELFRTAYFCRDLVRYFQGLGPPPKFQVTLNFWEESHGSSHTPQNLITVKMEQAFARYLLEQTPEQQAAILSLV
Assay: co-IP
Conditions: remark: other sources report otherwise

B1: STAT1, P42224 1-750 (protein)
chain: MSQWYELQQLDSKFLEQVHQLYDDSFPMEIRQYLAQWLEKQDWEHAANDVSFATIRFHDLLSQLDDQYSRFSLENNFLLQHNIRKSKRNLQDNFQEDPIQMSMIIYSCLKEERKILENAQRFNQAQSGNIQSTVMLDKQKELDSKVRNVKDKVMCIEHEIKSLEDLQDEYDFKCKTLQNREHETNGVAKSDQKQEQLLLKKMYLMLDNKRKEVVHKIIELLNVTELTQNALINDELVEWKRRQQSACIGGPPNACLDQLQNWFTIVAESLQQVRQQLKKLEELEQKYTYEHDPITKNKQVLWDRTFSLFQQLIQSSFVVERQPCMPTHPQRPLVLKTGVQFTVKLRLLVKLQELNYNLKVKVLFDKDVNERNTVKGFRKFNILGTHTKVMNMEESTNGSLAAEFRHLQLKEQKNAGTRTNEGPLIVTEELHSLSFETQLCQPGLVIDLETTSLPVVVISNVSQLPSGWASILWYNMLVAEPRNLSFFLTPPCARWAQLSEVLSWQFSSVTKRGLNVDQLNMLGEKLLGPNASPDGLIPWTRFCKENINDKNFPFWLWIESILELIKKHLLPLWNDGCIMGFISKERERALLKDQQPGTFLLRFSESSREGAITFTWVERSQNGGEPDFHAVEPYTKKELSAVTFPDIIRNYKVMAAENIPENPLKYLYPNIDKDHAFGKYYSRPKEAPEPMELDGPKGTGYIKTELISVSEVHPSRLQTTDNLLPMSPEEFDEVSRIVGSVEFDSMMNTV
binding: binds
